This is an account of results in PubChem BioAssay AID2685 (National Center for Advancing Translational Sciences (NCATS), 2010).

A word on the AC50: it is the midpoint of the concentration-response curve, whichever way the signal moves. A higher AC50 goes with weaker potency.

The experiment is described as follows: qHTS Assay for Lipid Storage Modulators in Drosophila S3 Cells.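 For cell number change: cells counted by Cell Tracker Red CMTPX staining in the red channel.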 Particulars: BODIPY lipid droplet fluorescence, 18-24 h; for cell number change: measured here: cell count max response, cells fed with added oleic acid. The procedure, abridged: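 Drosophila S3 cells loaded with oleic acid (400 uM, as added) and compounds at several concentrations; lipid droplets imaged by 488-nm laser-scanning cytometry, 500–530 nm intensity and object ratio to cell channel. Percent activity normalized to 20 uM Triacsin C.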
For orientation: In qHTS, concentration-response curves come from the screen itself.

Where [1] appears, read: measured here: lipid fluorescence (Fed channel) AC50, cells fed with added oleic acid.
Where [2] appears, read: measured here: cell number channel AC50, cells fed with added oleic acid.

Values joined by “and” are separate entries in the source; they are usually repeats but may differ in a detail not shown here. Equal entries are not always repeated. The list shows a part of the results. These are further read-outs of the screen, such as a control signal, another cell line or another target. No call is given for them. Most of these compounds were active or inconclusive in the main read-out, so they are no random draw. The note in brackets gives the kind of curve behind each potency; many fits are weak. Where a SMILES comes first, the peptide text is derived from it. [ ]: non-standard residue; d: D form. The star is where a group is joined. ξ: configuration not given here. Cbz = O=C(OCc1ccccc1)*; OBn = c1ccc(CO*)cc1; ξP = O=C(O)C1CCCN1

Take `CNC(=O)CN(C)S(=O)(=O)c1ccc(F)cc1`: under setting [1], the AC50 is 23.1 µM [falling, partial curve].

Regarding `Cc1ccc(/C=N\NC(=O)c2cncc(Br)c2)o1`, the cell number change worked out at 14.9%. In addition, the half-maximal activity concentration (AC50) under setting [1] was 10.3 µM [rising, partial curve].

As for `O=C(Nc1ccc(NC(=O)c2cccs2)cn1)c1ccco1`, the cell number change was -19.8%.

In the case of `Cc1nc(N2CCN(c3ccc(Cl)cc3)CC2)[nH]c(=O)c1C`, the cell number change came to 33.4%.

Consider `O=C(NC1CCCCC1)C(c1ccncc1)N(C(=O)Cn1nnc(-c2cccs2)n1)C1CCCC1` (stereo unspecified), for which the cell number change was found to be 14.3%. The AC50 under setting [1] is 2.59 µM [rising, full curve, poor fit].

`COCCCN1C(=O)c2ccc(C(=O)OCC(=O)N3CCN(c4ccccc4)CC3)cc2C1=O`: the AC50 under setting [1] was 29.1 µM [rising, single point].

In the case of `COc1ccc(/C=C(/C(=O)NCc2ccccc2)c2ccccc2)cc1`, the cell number change turned out to be 3.33%. The AC50 under setting [1] was 29.1 µM [falling, single point].

As for `C/C(=N\OC(=O)NC1CCCCC1)c1sc(-c2ccccc2)nc1C`, the cell number change was -6%. The AC50 under setting [2] is 1.16 µM [falling, full curve]. For the same compound, under setting [1], the AC50 is 1.16 µM [falling, full curve].

For the compound `COc1ccc(NC(=O)C2CCCCN2S(=O)(=O)c2ccc(F)cc2)cc1` (stereo unspecified), the cell number change turned out to be 32.4%. The half-maximal activity concentration (AC50) under setting [2] was 2.06 µM [rising, full curve]. For the same compound, the AC50 under setting [1] was 2.91 µM [rising, single point].

For `O=C(CNC(=O)OCc1ccccc1)NCC(=O)N1CCCC1C(=O)OCc1ccccc1` (stereo not drawn) (Cbz-Gly-Gly-[ξP]-OBn), the cell number change was -21.3%.

Regarding `O=C(O)c1ccc(N/N=C/c2ccc(C(F)(F)F)cc2)cc1`, the cell number change was 30.6%. Further, under setting [2], the AC50 is 2.59 µM [rising, full curve, poor fit]. Also, under setting [1], the AC50 was 4.61 µM [rising, full curve].

Take `COc1ccc(OC(=O)c2ccc(OC)c(S(=O)(=O)N3CCOCC3)c2)cc1`: the cell number change was found to be 26.9%. Moreover, the AC50 under setting [1] is 23.1 µM [rising, single point].

For the compound `CC1(C(=O)NCc2ccccc2)Oc2ccccc2NC1=O` (stereo unspecified), the AC50 under setting [1] was 18.4 µM [falling, partial curve].

For `Cc1nc2ccc3[nH]snc3c2n1`, the cell number change worked out at 18.5%.

Take `CC(C)NS(=O)(=O)c1ccc(NC(=S)NC(=O)c2cccc([N+](=O)[O-])c2)cc1`: the cell number change is -16.8%. The AC50 under setting [1] is 18.4 µM [falling, partial curve, poor fit].

With `Cc1cccc(Oc2cc(NC(=O)Cn3cnc([N+](=O)[O-])n3)cc([N+](=O)[O-])c2)c1`, the cell number change was 5.07%. Also, under setting [1], the half-maximal activity concentration (AC50) was 0.146 µM [rising, full curve].

As for `CC1CN(C(=O)COC(=O)c2ccc(Cl)c(S(=O)(=O)N3CCCCC3)c2)CC(C)O1` (stereo unspecified), under setting [2], the half-maximal activity concentration (AC50) is 6.51 µM [falling, single point].

Consider `O=C(COc1ccc(S(=O)(=O)N2CCOCC2)cc1Cl)NC1CCCCC1`, for which the cell number change is -44.1%. Further, under setting [2], the AC50 was 9.2 µM [falling, partial curve, poor fit]. Moreover, the AC50 under setting [1] is 1.16 µM [falling, full curve].

For `CCN(CC)CCOc1ccc(/C(=C(/Cl)c2ccccc2)c2ccccc2)cc1`, the cell number change was -55.8% and -20.8%. Moreover, the half-maximal activity concentration (AC50) under setting [2] is 7.31 µM [falling, partial curve, poor fit]. For the same compound, under setting [1], the AC50 is 29.1 µM [falling, single point].

In the case of `C=CCNC(=S)N/N=C(\C)c1cccc(NC(C)=O)c1`, the half-maximal activity concentration (AC50) runs as follows: under setting [2], 0.164 µM [rising, partial curve]; under setting [1], 0.259 µM [rising, partial curve].

For the compound `CCN1C(=O)/C(=C/C=C2/Sc3ccc4ccccc4c3N2CCO)SC1=S`, the cell number change worked out at 0.862%.

Turning to `Cc1ccc(NC(=O)c2cc(NC(=O)c3ccco3)ccc2N2CCOCC2)cc1`, the cell number change is -9.18%. Also, under setting [1], the half-maximal activity concentration (AC50) was 0.651 µM [rising, full curve].

For `COC(=O)c1ccc([N+](=O)[O-])cc1N1C(=O)C2C3CCC(C3)C2C1=O` (stereo unspecified), the cell number change was -2.29%.

Turning to `Cc1cccn2cc(-c3cccc(NC(=O)c4cccs4)c3)nc12`, the cell number change is -38.3%. Further, the AC50 under setting [2] is 18.4 µM [falling, single point]. Moreover, the AC50 under setting [1] is 16.4 µM [falling, single point].

For `Cc1nn(C(C)C(=O)N2CCc3ccccc3C2)c(=O)c2cc3occc3n12` (stereo unspecified), the cell number change was -31.2%. Also, under setting [1], the AC50 is 1.03 µM [falling, full curve, poor fit].

For `Cc1cccc(CSc2nc3nc(C)cc(C)n3n2)c1`, the cell number change turned out to be 13.6%. Moreover, the AC50 under setting [1] was 2.59 µM [rising, full curve].

Take `CC(C)(C)n1nnnc1C(c1cccs1)N(Cc1ccc(Cl)cc1)CC1CCCO1` (stereo unspecified): the cell number change is -27.2%. Moreover, the AC50 under setting [1] was 2.31 µM [falling, full curve, poor fit].

As for `CC(C)Cc1nc2n[nH]c(N)c2c2c1CCCC2`, the cell number change worked out at 57.7%. Besides, the AC50 under setting [2] is 29.1 µM [rising, single point]. Further, the AC50 under setting [1] is 2.59 µM [rising, single point].

Regarding `CCOC(=O)CC1ON(C)C(=O)N1c1ccc([N+](=O)[O-])cc1` (stereo unspecified), the cell number change was 0.34%. Also, the AC50 under setting [2] is 0.146 µM [falling, full curve, poor fit]. The AC50 under setting [1] is 0.411 µM [falling, partial curve, poor fit].

For `COc1ccc(OC)c(NC(=O)C2CCN(C(=O)C3CC(=O)N(c4ccc(C)cc4)C3)CC2)c1` (stereo unspecified), the cell number change was -2.56%.

For `COc1cccc(-n2c(Cc3cc(=O)[nH]c(=O)[nH]3)nnc2SC(C)C)c1`, the cell number change is -66.3%. In addition, under setting [2], the AC50 is 18.4 µM [falling, single point]. Further, the AC50 under setting [1] is 23.1 µM [falling, single point].

`COc1ccc(N(CC(=O)NC2CC3CCC2C3)S(=O)(=O)c2ccc(C)c([N+](=O)[O-])c2)cc1` (stereo unspecified): the cell number change was -0.833%. For the same compound, the AC50 under setting [1] was 0.411 µM [falling, partial curve].

Turning to `N#Cc1nc(-c2ccccc2F)oc1N1CCN(C(=O)c2ccco2)CC1`, the cell number change is -26.7%. In addition, the AC50 under setting [1] was 14.1 µM [falling, single point].

As for `COCCN(CC(=O)Nc1cccc(C)c1C)C(=O)c1cc2c(s1)CCC2`, the cell number change was 3.03%. Besides, under setting [1], the AC50 is 14.6 µM [rising, partial curve, poor fit].

In the case of `Cc1ccc(Nc2nc(CSc3nnnn3-c3ccccc3)cs2)cc1`, the cell number change was determined as 37.6%. In addition, the AC50 under setting [2] is 0.517 µM [rising, partial curve, poor fit]. Besides, the AC50 under setting [1] was 6.51 µM [rising, single point].

For `Cc1ccc(NC(=O)C(=O)NCC2CCCN2S(=O)(=O)c2cccs2)cc1C` (stereo unspecified), the cell number change stood at 114%. Further, the AC50 under setting [2] is 6.51 µM [rising, partial curve].
